1 molecule from PMC8877913 can be followed below.

Sequences of proteins named here, by UniProt entry; tags and fusion partners are left off.
UniProt P0C206: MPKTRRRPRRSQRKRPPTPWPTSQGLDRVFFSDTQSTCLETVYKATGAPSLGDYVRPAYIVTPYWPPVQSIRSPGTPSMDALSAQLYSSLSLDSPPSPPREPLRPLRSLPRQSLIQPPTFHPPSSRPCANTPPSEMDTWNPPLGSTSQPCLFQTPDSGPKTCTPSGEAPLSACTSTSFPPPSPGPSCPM

These are yes or no findings as the source states them, for the method shown. Binding seen in cells or lysates may run through a third protein. Some results given as binding are weak or reduced against the parent protein; the word gives no strength.

The target of this test is GST-Rex (HTLV-1 Rex) (HTLV-1) (UniProt P0C206). Put plainly: pull-down.

B1: NONO (non-POU domain-containing octamer-binding protein NONO/p54nrb) (protein, UniProt Q15233 1-471)
chain: MQSNKTFNLEKQNHTPRKHHQHHHQQQHHQQQQQQPPPPPIPANGQQASSQNEGLTIDLKNFRKPGEKTFTQRSRLFVGNLPPDITEEEMRKLFEKYGKAGEVFIHKDKGFGFIRLETRTLAEIAKVELDNMPLRGKQLRVRFACHSASLTVRNLPQYVSNELLEEAFSVFGQVERAVVIVDDRGRPSGKGIVEFSGKPAARKALDRCSEGSFLLTTFPRPVTVEPMDQLDDEEGLPEKLVIKNQQFHKEREQPPRFAQPGSFEYEYAMRWKALIEMEKQQQDQVDRNIKEAREKLEMEMEAARHEHQVMLMRQDLMRRQEELRRMEELHNQEVQKRKQLELRQEEERRRREEEMRRQQEEMMRRQQEGFKGTFPDAREQEIRMGQMAMGGAMGINNRGAMPPAPVPAGTPAPPGPATMMPDGTLGLTPPTTERFGQAATMEGIGAIGGTPPAFNRAAPGAEFAPNKRRRY
In the case of B1, the binding result is recorded as “binds”.
